Data published in PubChem BioAssay AID1671190 (National Center for Advancing Translational Sciences (NCATS), 2021).
Values joined by “and” are separate entries in the source; they are usually repeats but may differ in a detail not shown here. Equal values may be shown once. Out of some 580,000 compounds screened, about 6,100 (1.1%) were called active. Inconclusive means that the source gave no clear call. Such entries were picked first, then a sample of the others. The call rests on the fitted dose curve; in most records, active means well fitted inhibition curve with a large enough effect; inconclusive means small, poorly fitted or top-dose-only effect, or another doubt; inactive means no such curve, though single readings can be large or run the other way. Potencies beside an inconclusive call are fits to weak or partial responses and may not hold up.

Chains of the proteins cited; added tags and fusions are not shown. Lines headed by an entry give the natural chain unless they say otherwise; changes in a name come on top.
UniProt P18054: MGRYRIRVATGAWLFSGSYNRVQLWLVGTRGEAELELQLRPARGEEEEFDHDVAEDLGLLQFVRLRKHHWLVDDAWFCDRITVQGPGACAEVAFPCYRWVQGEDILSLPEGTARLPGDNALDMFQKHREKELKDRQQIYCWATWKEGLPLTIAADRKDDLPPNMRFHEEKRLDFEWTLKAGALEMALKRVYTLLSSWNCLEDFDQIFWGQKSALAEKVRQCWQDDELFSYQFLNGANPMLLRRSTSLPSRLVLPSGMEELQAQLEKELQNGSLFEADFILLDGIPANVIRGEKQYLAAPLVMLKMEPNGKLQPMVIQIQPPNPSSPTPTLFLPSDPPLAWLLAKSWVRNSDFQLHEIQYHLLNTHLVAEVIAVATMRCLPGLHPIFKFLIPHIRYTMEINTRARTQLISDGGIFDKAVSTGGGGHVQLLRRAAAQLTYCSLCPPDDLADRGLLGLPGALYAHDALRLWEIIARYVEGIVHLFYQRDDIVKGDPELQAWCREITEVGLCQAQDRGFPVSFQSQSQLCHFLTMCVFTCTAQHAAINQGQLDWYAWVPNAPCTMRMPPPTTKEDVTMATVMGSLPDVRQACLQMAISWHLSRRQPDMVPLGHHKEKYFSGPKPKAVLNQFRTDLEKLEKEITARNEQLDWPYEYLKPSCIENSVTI

biological target: Polyunsaturated fatty acid lipoxygenase ALOX12 (Homo sapiens) (UniProt P18054); assay: Primary qHTS assay for inhibitors of human arachidonate 12S-lipoxygenase (ALOX12): Round 2; conditions: purified 12hLO, xylenol orange hydroperoxide absorbance; activity change, negative = inhibition: at 108 µM (top of the series) unless noted
Outline: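 Hydroperoxide product was detected by ferrous iron/xylenol orange as the 573 to 405 nm absorbance ratio. Arachidonic acid at 40 uM (final) was turned over for 30 min at room temperature by 150 nM human 12hLO, pH 7.0 Hepes buffer, after 15 min compound preincubation.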
On the % scale 0 is the no-effect control and ±100 the full control effect; potency means the concentration at half of the fitted maximal effect.

Structure (SMILES) | Potency | activity change, negative = inhibition
CCN1CCN(CCCNC(=O)c2cnn(-c3ccc(C)cc3C)c2C2CCN(C(=O)OC(C)(C)C)CC2)CC1 | inconclusive: 50.1 µM [inhibitor, partial curve, poor fit] | –
C=CCOC(=O)C1=C[C@@H](c2ccc(Br)cc2)C[C@@H](OCc2ccc(CO)cc2)O1 | inconclusive: 35.5 µM [inhibitor, partial curve, poor fit] | –
O=C(COC(=O)c1cc(-c2ccccc2)nc2ccccc12)c1ccc(Br)cc1 | inactive | –
O=C(NCc1ccccc1)C1=C[C@H](C2CCCCC2)C[C@H](OCCCCO)O1 | inconclusive: 50.1 µM [inhibitor, partial curve, poor fit] | –
CCNc1ccc(C(=O)OCC(=O)Nc2cc(C)on2)cc1[N+](=O)[O-] | inconclusive: 89.1 µM [inhibitor, single point] | –
C[C@H](NC(=O)C(c1ccccc1)c1ccccc1)C(=O)O | inconclusive: 63.1 µM [inhibitor, partial curve, poor fit] | –
COc1cc(N/N=C/c2ccccc2O)ncn1 | inconclusive: 44.7 µM [inhibitor, partial curve, poor fit] | –
COc1ccc(/C=C(/C#N)c2nc3ccccc3[nH]2)cc1C | inactive | –
N#C/C(=C/c1ccc(-c2ccccc2[N+](=O)[O-])o1)C(=O)NCCN1CCCCC1 | inconclusive: 44.7 µM [inhibitor, partial curve, poor fit] | –
COc1ccc(-c2c(C(=O)c3ccccc3)[nH]c(N)c2C(=O)NC2CC2)cc1OC | inconclusive: 44.7 µM [inhibitor, partial curve, poor fit] | –
COc1cccc(CNC(=S)Nc2cc(OC)ccc2OC)c1 | inconclusive: 4.47 µM [inhibitor, full curve, poor fit] | –
CCn1c(-n2nc(C)cc2C)nc2c1c(=O)n(Cc1ccccc1F)c(=O)n2C | inactive | –
CC1CCC(C(=O)NC(C(=O)OCC(=O)c2ccccc2)C(C)C)CC1 (centres undefined) | – | inconclusive: -37.8% [inhibitor]
COc1ccc(/C(O)=C2/C(=O)C(=O)N(CCCN(C)C)C2c2ccc(Cl)cc2)cc1OC (centres undefined) | inconclusive: 89.1 µM [inhibitor, single point] | –
CN1CCc2c(sc(NC(=O)Cc3ccccc3)c2C(N)=O)C1 | inconclusive: 100 µM [inhibitor, single point] | –
CCN1CCc2nc3sc(C(=O)Nc4cccc(Cl)c4C)c(N)c3cc2C1 | inactive | –
COc1ccc(N2CCN(CCCNC(=O)CN3CCN(Cc4ccccc4C)C3=O)CC2)cc1 | inconclusive: 100 µM [inhibitor, single point] | –
Cc1nn(-c2ccccc2)c2c1cc1c(=O)n(C)c(=O)nc-1n2-c1ccccc1F | inconclusive: 39.8 µM [inhibitor, partial curve, poor fit] | –
CCN(Cc1ccccc1)N=Nc1ccccc1 | inconclusive: 44.7 µM [inhibitor, partial curve] | –
COCCNC(=O)c1cccc(NS(=O)(=O)c2cccc3cccnc23)c1 | inconclusive: 5.01 µM [inhibitor, full curve, poor fit] | –
CN(Cc1cccc(C(F)(F)F)c1)C(=O)Nc1ccc(Cl)cc1 | inconclusive: 56.2 µM [inhibitor, partial curve, poor fit] | –
COc1ccc2c3c(ccc2c1)C(=O)/C(=C/O)CC3 | active: 25.1 µM | –

A second format for 15 compounds above.
Structure (SMILES)	Potency	activity change, negative = inhibition
CCN1CCN(CCCNC(=O)c2cnn(-c3ccc(C)cc3C)c2C2CCN(C(=O)OC(C)(C)C)CC2)CC1	inconclusive: 50.1 µM [inhibitor, partial curve, poor fit]	–
C=CCOC(=O)C1=C[C@@H](c2ccc(Br)cc2)C[C@@H](OCc2ccc(CO)cc2)O1	inconclusive: 35.5 µM [inhibitor, partial curve, poor fit]	–
O=C(COC(=O)c1cc(-c2ccccc2)nc2ccccc12)c1ccc(Br)cc1	inactive	–
O=C(NCc1ccccc1)C1=C[C@H](C2CCCCC2)C[C@H](OCCCCO)O1	inconclusive: 50.1 µM [inhibitor, partial curve, poor fit]	–
CCNc1ccc(C(=O)OCC(=O)Nc2cc(C)on2)cc1[N+](=O)[O-]	inconclusive: 89.1 µM [inhibitor, single point]	–
C[C@H](NC(=O)C(c1ccccc1)c1ccccc1)C(=O)O	inconclusive: 63.1 µM [inhibitor, partial curve, poor fit]	–
COc1cc(N/N=C/c2ccccc2O)ncn1	inconclusive: 44.7 µM [inhibitor, partial curve, poor fit]	–
COc1ccc(/C=C(/C#N)c2nc3ccccc3[nH]2)cc1C	inactive	–
N#C/C(=C/c1ccc(-c2ccccc2[N+](=O)[O-])o1)C(=O)NCCN1CCCCC1	inconclusive: 44.7 µM [inhibitor, partial curve, poor fit]	–
COc1ccc(-c2c(C(=O)c3ccccc3)[nH]c(N)c2C(=O)NC2CC2)cc1OC	inconclusive: 44.7 µM [inhibitor, partial curve, poor fit]	–
COc1cccc(CNC(=S)Nc2cc(OC)ccc2OC)c1	inconclusive: 4.47 µM [inhibitor, full curve, poor fit]	–
CCn1c(-n2nc(C)cc2C)nc2c1c(=O)n(Cc1ccccc1F)c(=O)n2C	inactive	–
CC1CCC(C(=O)NC(C(=O)OCC(=O)c2ccccc2)C(C)C)CC1 (centres undefined)	–	inconclusive: -37.8% [inhibitor]
COc1ccc(/C(O)=C2/C(=O)C(=O)N(CCCN(C)C)C2c2ccc(Cl)cc2)cc1OC (centres undefined)	inconclusive: 89.1 µM [inhibitor, single point]	–
CN1CCc2c(sc(NC(=O)Cc3ccccc3)c2C(N)=O)C1	inconclusive: 100 µM [inhibitor, single point]	–

Next part.

Structure (SMILES) | Potency | activity change, negative = inhibition
COc1cccc(CNC(=O)CSc2nnc3c(n2)[nH]c2ccc(C)cc23)c1 | inconclusive: 50.1 µM [inhibitor, partial curve, poor fit] | –
Cn1cnnc1SCC(C)(C)NS(=O)(=O)c1ccc(Cl)cc1 | inconclusive: 56.2 µM [inhibitor, partial curve, poor fit] | –
CN(C)S(=O)(=O)c1ccc(Cl)c(C(=O)Nc2ccc(Cl)c3cccnc23)c1 | inconclusive: 15.8 µM [inhibitor, full curve] | –
Cc1sc(NC(=O)c2ccco2)c(C(c2ccccc2)N2CCC(C)CC2)c1C (centres undefined) | inactive | –
COC1C(=O)N(C2CCN(Cc3cn(C)c4ccccc34)CC2)C12CCOCC2 (centres undefined) | inconclusive: 6.31 µM [inhibitor, full curve, poor fit] | –
Cc1nc2nc(-c3cccs3)[nH]c2cc1Br | inactive | –
Cc1scc2c1N(C(=O)CN1CCN(C)CC1)c1ccccc1NC2=O | inconclusive: 31.6 µM [inhibitor, partial curve, poor fit] and inconclusive: 7.94 µM [inhibitor, partial curve, poor fit] and inconclusive: 9.07 µM [inhibitor, partial curve, poor fit] | –
COc1cc(Cn2nnc3ccccc32)cc(Br)c1O | inconclusive: 50.1 µM [inhibitor, partial curve, poor fit] | –
C/C(=N/Nc1cc(C(F)(F)F)ccc1Cl)c1cccc(Br)c1 | inconclusive: 31.6 µM [inhibitor, partial curve, poor fit] | –
O=C(Cn1nc2c(cc1=O)CCCCC2)Nc1nc(-c2ccncc2)cs1 | inactive | –
CCc1cc(C(=O)NNC(=S)NC)cs1 | inactive | –
Cc1sc2nc(C(C)Sc3nnnn3C3CCCC3)[nH]c(=O)c2c1C (centres undefined) | inconclusive: 50.1 µM [inhibitor, partial curve, poor fit] | –
Cc1csc(NC(=O)c2cc(-c3ccccc3)nc3ccccc23)n1 | inconclusive: 50.1 µM [inhibitor, partial curve, poor fit] | –
COc1cccc(N2CCN(c3ncnc4c3cnn4-c3ccc(C)cc3C)CC2)c1 | inactive | –
CN(Cc1ccccc1)C(=O)c1cccc(NC(=O)Cc2ccc(NC(=O)C3CCN(S(=O)(=O)c4cccc([N+](=O)[O-])c4)CC3)cc2)c1 | inconclusive: 100 µM [inhibitor, single point] | –
O=C(/C=C/c1cccs1)Oc1ccc2oc3ccccc3c2c1 | inactive | –
NS(=O)(=O)c1ccc(CNC(=O)c2ccc(Cl)c([N+](=O)[O-])c2)cc1 | inactive | –
CCOc1ccc(N(C)S(=O)(=O)c2ccc3[nH]cc(C(=O)NCCOC)c(=O)c3c2)cc1 | inactive | –
Cc1ccc(SCCNC(=O)c2ccccc2)cc1 | inactive | –
COc1ccc(NC(=O)c2ncoc2-c2ccc(C)o2)cc1Cl | inconclusive: 0.316 µM [inhibitor, full curve, poor fit] | –
O=C(O)CNS(=O)(=O)c1ccccc1F | inconclusive: 28.2 µM [inhibitor, partial curve] | –
Cc1cccc(NCC(=O)N/N=C\c2cccc(Oc3ccccc3)c2)c1 | inactive | –

Structure (SMILES) | Potency | activity change, negative = inhibition
CCc1cccc(NC(=O)c2cc(S(=O)(=O)N3CCCCC3)ccc2N2CCOCC2)c1 | inactive | –
CCOc1cccc(CN2CCC(CCC(=O)NC3CC3)CC2)c1O | inconclusive: 126 µM [inhibitor, single point] | –
CCN1CCN(c2cc(C)c3cc(NC(=S)NCc4cccs4)ccc3n2)CC1 | inconclusive: 44.7 µM [inhibitor, partial curve, poor fit] | –
COc1ccc(-c2noc([C@@H]3C[C@@H](O)CN3Cc3cc4ccccc4o3)n2)cc1 | inconclusive: 14.1 µM [inhibitor, full curve] | –
COc1cccc(C2CCCN2Cc2cc(=O)oc3cc(OC)ccc23)c1 (centres undefined) | active: 44.7 µM | –
Cc1ccc(NC(=O)N2CCCCC2c2noc(COc3ccc(F)cc3)n2)cc1F (centres undefined) | inactive | –
O=C(Nc1ccc(N2CCC(N3CCCCC3)CC2)c(C(=O)O)c1)c1ccc(Br)cc1 | inconclusive: 100 µM [inhibitor, partial curve, poor fit] | –
CCOc1cc(C2C(C(=O)OC)=C(C)NC3=C2C(=O)c2ccccc23)ccc1O (centres undefined) | inconclusive: 100 µM [inhibitor, partial curve, poor fit] | –
CN(Cc1ccc(Cl)cc1)C(C(=O)NC1CCCCC1)c1ccnc2ccccc12 (centres undefined) | inconclusive: 56.2 µM [inhibitor, partial curve, poor fit] | –
COc1ccc(S(=O)(=O)N2CCCN(C)c3ccccc32)cc1Cl | inconclusive: 50.1 µM [inhibitor, single point] | –
CSc1ncnc2c1ncn2CCCNCC1CCCCC1 | inconclusive: 89.1 µM [inhibitor, partial curve, poor fit] | –
O=C(O)C1CCc2nnc(C3CCN(C(=O)c4ccccc4)C3)n21 (centres undefined) | – | inactive: 2.3% [at 6.33 µM]
Cc1ccc(NC(=O)COC(=O)c2ccc3ccccc3n2)c(C)c1 | inconclusive: 39.8 µM [inhibitor, partial curve, poor fit] | –
O=C(/C=C/c1cccs1)c1ccc(NC(=O)c2ccccc2F)cc1 | inactive | –
Cc1nn(-c2ccccc2)c(Cl)c1/C=C1\SC(=S)NC1=O | active: 25.1 µM | –
Cc1cccc(/C=C/c2onc(C)c2S(=O)(=O)N2CCC(C(=O)N3CCC(C)CC3)CC2)c1 | inactive and inconclusive: 100 µM [inhibitor, partial curve, poor fit] | –
COc1ccc2[nH]c(=O)c(COC(=O)c3ccc(F)cc3)cc2c1 | inconclusive: 50.1 µM [inhibitor, partial curve, poor fit] | –
Cc1cc(NC(=O)c2ccc3c(c2)N(C)C2CCCCN2C3=O)ccc1Cl (centres undefined) | inconclusive: 11.2 µM [inhibitor, partial curve, poor fit] | –
CCc1c(-c2ccc(Br)cc2)ncn1CCc1ccccc1OC | inconclusive: 50.1 µM [inhibitor, partial curve, poor fit] | –
FC(F)(F)c1ccccc1-n1ccnc1 | inactive | –
